This test in a line: qHTS Assay to Find Inhibitors of Chronic Active B-Cell Receptor Signaling. Conditions: ABC-DLBCL IkBa-CBG/CBR reporter, luminescence ratio (green luciferase fused to IkBa over red control in TMD8 lymphoma cells), 4 h. The procedure, abridged: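 Cell line TMD8 (human ABC DLBCL), stably expressing tet-inducible CBG68-IkBa fusion and CBR; IMDM/0.5% FBS; cpd up to 46 uM; dox induction, 4 h, 37C/5% CO2; dual luminescence; green/red ratio; MG132 control.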
Background: qHTS replaces the single test concentration by a dilution series.

Where [1] appears, read: measured here: CBR red luminescence, cell number.
The mark [2] stands for this setting: measured here: IkBa-CBG green luminescence.

The values that follow come from PubChem BioAssay AID493014 (National Center for Advancing Translational Sciences (NCATS), 2011).

The AC50 is the concentration giving half of the maximal activity seen.

SMILES strings stand for the structures. This is one part of the list. Further columns of the screen follow, without active or inactive calls. Compounds called inactive in the main read-out are mostly missing here. Potencies come from curve fits of mixed quality, noted in brackets.

`CCOC(=O)c1cc2ccc(OC(=O)c3ccco3)cc2oc1=O`: the AC50 under setting [1] was 29.1 µM [falling, single point]. In the case of `CC(=O)N1N=C(c2ccc(C)cc2)CC1c1ccc2c(c1)OCO2` (configuration not stated), the concentration at half-maximal activity (AC50) under setting [1] was 35.5 µM [rising, single point]. For the molecule `O=C(NCCc1ccccc1)C1CCN(C(=O)N2CCOc3ccccc32)CC1`, the AC50 under setting [1] is 2.82 µM [rising, single point]. The same measure, in the same setting: next, `Cc1cccc(C)c1N1CCN(c2ccc3nnc(C(F)(F)F)n3n2)CC1`: 16.4 µM [falling, partial curve, poor fit].

As to `COc1ccc(CC(=O)Nc2cccc(-c3nnc(-c4ccccc4)o3)c2)cc1OC`, under setting [1], the AC50 was 32.6 µM [falling, single point]. On to `CC(C)n1ncc2c(C(=O)Nc3ccc(S(N)(=O)=O)cc3)cc(C3CC3)nc21`, for which the AC50 under setting [1] is 16.4 µM [rising, partial curve, poor fit].

For the molecule `Nc1ccc(-c2nc3cc([N+](=O)[O-])ccc3o2)cc1`, under setting [1], the AC50 is 15.8 µM [falling, partial curve, poor fit]. Turning to `C#CCOCCOCCOCCNc1nc(N2CCN(C(=O)CCCCCCCCCCNC(=O)[C@H](CO)n3cc(CCCSC)nn3)CC2)nc(N2CCN(C(=O)CCCCCCCCCCNC(=O)[C@H](CCCCN)n3cc(CCO)nn3)CC2)n1`, the AC50 under setting [1] is 20.6 µM [rising, single point]. Take `CCOC(=O)c1c(CSc2ccsc2)n(C)c2cc(Br)c(O)c(CN(C)C)c12`: the concentration at half-maximal activity (AC50) under setting [1] was 35.5 µM [falling, single point].

For `COCCNC(=O)c1ccccc1NC(=O)CN(c1ccc2c(c1)OCO2)S(C)(=O)=O`, the AC50 under setting [1] is 0.231 µM [rising, full curve, poor fit].

As for `Cc1cccc(-n2nc3c(c2NC(=O)C(C)C)CS(=O)(=O)C3)c1C`, the AC50 under setting [1] is 0.794 µM [rising, full curve, poor fit]. Consider `Cc1cccc(C)c1-n1nnnc1SCSc1nnnn1-c1c(C)cccc1C`, for which the AC50 under setting [1] was 6.51 µM [rising, single point]. On the same count and under the same terms, with `CCCCOC(=O)Nc1ccc(C(=O)OC)cc1` the figure was 3.98 µM [rising, single point]; with `Cn1c(=O)n(Cc2ccccc2F)c2ccccc21`, 11.2 µM [rising, single point]. `COc1ccccc1NC(=O)CN1C(=O)COc2ccc(C)cc21`: under setting [1], the AC50 was 15.8 µM [rising, single point]. On to `COc1cccc(NC(=O)C(=O)NCC2CCCN2S(=O)(=O)c2ccccc2)c1` (configuration not stated), for which, under setting [1], the AC50 is 29.1 µM [falling, partial curve, poor fit].

On to `O=C(O)COc1ccccc1/C=N/NC(=O)CN1CCN(Cc2ccc(Cl)cc2)CC1`, for which the AC50 under setting [1] is 6.31 µM [rising, single point].

Consider `Cc1ccc2nc(NC(=O)c3cccs3)sc2c1`, for which the AC50 under setting [1] is 2.24 µM [falling, full curve]. The same measure, in the same setting: next, `COc1ccc(Cn2nnc3c(C)n[nH]c(=O)c32)cc1`: 10 µM [rising, partial curve, poor fit]. Regarding `O=C(Nc1nc(-c2ccco2)c(-c2ccco2)s1)c1c(F)cccc1Cl`, the AC50 under setting [1] was 3.66 µM [falling, partial curve]. As to `CC(/C=N/NC(=O)c1cc(-c2cccn2C)n[nH]1)=C\c1ccccc1`, the AC50 under setting [1] was 5.01 µM [falling, partial curve, poor fit]. As to `O=C(C[n+]1cc(-c2ccc(F)cc2)n2c1CCC2)Nc1nc(-c2ccc(F)cc2)cs1`, the AC50 under setting [1] was 0.517 µM [falling, full curve, poor fit]. Consider `COC(=O)Cn1cnc2c1c(=O)n(C)c(=O)n2C`, for which the half-maximal activity concentration (AC50) under setting [1] was 0.731 µM [falling, full curve, poor fit]. As to `CC(C)c1cc(C(=O)Nc2cc(Br)ccc2O)no1`, the AC50 under setting [1] is 0.231 µM [rising, full curve, poor fit]. For `O=C(N/N=C/c1cccnc1)c1ccccc1Cl`, the AC50 under setting [1] was 35.5 µM [falling, single point]. For `Cc1ccc(/C=N/Nc2nc3ccccc3s2)o1`, the AC50 under setting [1] was 13 µM [falling, single point]. On to `Cc1cc(C(=O)NN)c(C)o1`, for which the half-maximal activity concentration (AC50) under setting [1] is 10 µM [falling, partial curve]. For the molecule `CC1=C(C#N)C(/C=N/OCc2ccc(Cl)cc2)CC(=O)N1` (configuration not stated), the AC50 under setting [1] was 3.16 µM [rising, partial curve]. With `Cc1ccc(S(=O)(=O)c2c(N)n(CCC(C)C)c3nc4ccccc4nc23)cc1`, the AC50 is 29.1 µM [falling, single point] under setting [1] and 11.6 µM [rising, partial curve, poor fit] under setting [2]. In the case of `C/C(N)=C(/C#N)C(=O)CSc1ccccc1F`, the concentration at half-maximal activity (AC50) under setting [1] was 20 µM [falling, single point].

Regarding `Cc1cc(C)cc(OCc2nnc(SCC(=O)OC(C)C)o2)c1`, the AC50 under setting [1] is 20.6 µM [falling, partial curve, poor fit]. As to `CN(C)S(=O)(=O)c1ccc(C(=O)N2CCN=C2SCc2cccnc2)cc1`, under setting [1], the AC50 is 29.1 µM [falling, single point].

`CC(=O)Nc1ccc(NS(=O)(=O)c2ccc(C)cc2)cc1[N+](=O)[O-]`: the AC50 under setting [1] is 3.98 µM [rising, single point]. For the molecule `Cc1cc(NC(=O)COC(=O)CSCc2ccc(Cl)c(Cl)c2)no1`, the AC50 under setting [1] was 7.31 µM [rising, partial curve, poor fit]. As to `Cc1ccc(N(CC2CO2)S(=O)(=O)c2ccc([N+](=O)[O-])cc2)cc1` (configuration not stated), under setting [1], the AC50 is 12.6 µM [falling, partial curve, poor fit]. On the same count and under the same terms, next, `Cc1nc2ccccc2n1C(=O)c1cc(-c2ccc(Br)cc2)nc2ccccc12`: 17.8 µM [rising, single point].

Turning to `COc1ccc(CNC(=O)CNC(=O)c2cccs2)c(OC)c1`, the half-maximal activity concentration (AC50) under setting [1] is 0.1 µM [rising, full curve, poor fit]. With `CCOC(=O)CNc1c(-c2ccccc2)nc2ccc(Cl)cn12`, the AC50 reads like this: under setting [1], 10 µM [falling, partial curve]; under setting [2], 12.6 µM [rising, partial curve, poor fit]. For the molecule `COCCNC(=S)N1CCN(c2ccc(Cl)cc2)CC1`, under setting [1], the AC50 was 20 µM [rising, single point]. For the molecule `COc1ccc(S(=O)(=O)Nc2nc3ccccc3nc2NCC2CCCO2)cc1` (configuration not stated), the AC50 under setting [1] is 6.31 µM [rising, single point]. On to `COc1ccc2sc(-c3ccc(SC)cc3)c(C#CCO)c2c1`, for which, under setting [1], the AC50 was 0.0651 µM [rising, full curve, poor fit]. `COc1ccc(S(=O)(=O)N(C)CC(=O)N2CCC(C(N)=O)CC2)cc1Cl`: the AC50 under setting [1] is 32.6 µM [rising, single point].

Take `CN(Cc1nc(Cc2cccc(F)c2)no1)CC1COCCO1` (configuration not stated): the AC50 under setting [2] was 10 µM [rising, partial curve, poor fit].

For the molecule `COc1cc(/C=N/NC(N)=S)cc(Br)c1OCc1ccccc1F`, the AC50 under setting [1] is 6.51 µM [falling, partial curve]. The same measure, in the same setting: with `CS(=O)(=O)N(CC(=O)N1CCN(c2ccccc2)CC1)c1ccc(Cl)c(C(F)(F)F)c1` the figure was 0.00517 µM [rising, full curve, poor fit]. Regarding `O=S(=O)(Nc1nc2ccccc2nc1NCC1CCCO1)c1ccc(F)cc1` (configuration not stated), the AC50 under setting [1] was 11.2 µM [falling, partial curve, poor fit]. The same measure, in the same setting: with `O=C(Nc1ccccc1)c1cccc2c(Br)cccc12` the figure was 2.82 µM [rising, single point]. For `C=CCN1C(=S)N[C@@H]2CS(=O)(=O)C[C@@H]21`, under setting [1], the half-maximal activity concentration (AC50) was 1.41 µM [falling, full curve, poor fit]. In the case of `Cc1cc(OCc2nc3ccccc3s2)ccc1N`, under setting [1], the AC50 is 10 µM [falling, partial curve].

In the case of `CCN(Cc1nc2ccccc2c(=O)[nH]1)C(=O)c1cc(C2CC2)nn1-c1ccccc1`, under setting [1], the AC50 is 11.6 µM [falling, partial curve, poor fit].

Take `Cc1cc(C)cc(NC(=O)CCc2ccc(C)o2)c1`: the AC50 under setting [1] is 3.98 µM [falling, single point]. `COc1cccc(-c2nc(-c3ccc(NC(=O)Cc4ccccc4OC)cc3)no2)c1`: under setting [1], the AC50 is 1.64 µM [falling, partial curve, poor fit]. On the same count and under the same terms, with `C/C(=N/OCO/N=C(\C)c1ccc(F)cc1F)c1ccc(F)cc1F` the figure was 0.92 µM [rising, full curve, poor fit]; with `Cc1ccc(S(=O)(=O)N2CCOCC2)cc1NC(=O)COC(=O)C1=COCCO1`, 18.4 µM [falling, partial curve, poor fit]; with `O=C(NCCc1ccccc1)/C(=N\O)c1ccccc1`, 11.2 µM [falling, single point]. As for `Cc1nccn1-c1c([N+](=O)[O-])c(=O)n(C)c2ccccc12`, the concentration at half-maximal activity (AC50) under setting [1] is 35.5 µM [falling, single point]. With `Cc1ccc(-c2csc(Nc3ccccn3)n2)cc1`, the AC50 under setting [1] is 11.2 µM [falling, single point]. In the case of `Cc1ccc(-c2ccc(CCC(=O)O)n2-c2ccc(C(=O)O)cc2)cc1`, under setting [1], the AC50 is 10 µM [falling, partial curve, poor fit]. The same measure, in the same setting: next, `Nc1ncnc2c1ncn2CCNCCc1ccccc1`: 25.9 µM [rising, partial curve, poor fit]. `O=C(O)c1csc(-c2cccc(Cl)c2)n1`: under setting [1], the AC50 is 11.2 µM [rising, partial curve]. As to `CC(C)C(=O)OC/C(O)=C(\C#N)c1nc2ccccc2[nH]1`, the AC50 is 25.1 µM [falling, single point] under setting [1] and 12.6 µM [rising, partial curve, poor fit] under setting [2]. Consider `CSc1ccccc1OCc1cc(C(=O)N(C)C(C)c2ccccn2)no1` (configuration not stated), for which, under setting [1], the AC50 was 35.5 µM [falling, single point].

Turning to `CC(=O)NCCC(=O)N(Cc1ccccc1)c1nc2c(C)cccc2s1`, the half-maximal activity concentration (AC50) under setting [1] was 12.6 µM [falling, partial curve, poor fit]. Turning to `Cc1ccc(OC(=O)COc2ccccc2)c(-n2nc3ccccc3n2)c1`, the AC50 under setting [1] was 29.1 µM [rising, single point].
